Consider six molecules from patent publication US20190194345A1 (UNIVERSITY OF VIRGINIA PATENT FOUNDATION, published 2019).

Sequences of proteins named here, by UniProt entry; tags and fusion partners are left off. A change or cut given only in a name is not applied to a line headed by its entry.
UniProt Q6HA08: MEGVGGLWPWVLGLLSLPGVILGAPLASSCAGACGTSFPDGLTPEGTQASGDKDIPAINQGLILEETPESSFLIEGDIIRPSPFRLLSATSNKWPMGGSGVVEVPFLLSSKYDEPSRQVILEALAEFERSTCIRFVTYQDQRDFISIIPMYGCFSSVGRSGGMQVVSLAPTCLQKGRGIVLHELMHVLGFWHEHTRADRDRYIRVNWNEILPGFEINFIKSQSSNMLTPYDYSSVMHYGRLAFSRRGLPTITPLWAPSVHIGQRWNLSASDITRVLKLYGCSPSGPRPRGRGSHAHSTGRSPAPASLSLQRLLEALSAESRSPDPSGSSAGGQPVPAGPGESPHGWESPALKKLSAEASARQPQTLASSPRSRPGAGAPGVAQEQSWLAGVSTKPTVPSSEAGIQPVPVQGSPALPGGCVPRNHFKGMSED

These are yes or no findings as the source states them, for the method shown. Binding calls can cover weak binding; strength is not graded here.

Assay [1] concerns the target recombinant SAS1B splice variant C (aa 1-436) (human) (UniProt Q6HA08). As to the kind of experiment: western blot (FIG. 22). In general terms: In western blotting, separated proteins are transferred to a membrane and probed.
In assay [2] the target is mCherry-SAS1B fusion protein (human). As to the kind of experiment: Western blot of cell lysates (lane: COS cells with the SAS1B-mCherry construct lacking the signal peptide), mAb 1 µg/ml.

B1: anti-human SAS1B murine monoclonal antibody SB4 (antibody, IgG2a, V domains shown)
VH: EVQLQQSGPELVKPGSSVKISCKPSGYTFTDYNMVWMKQSHGKSLEWIGAINPNNGGTTYNQKFKGKATLTVDKSSSTAYMELRSLTSEDSAVYYCAPNWDWFAYWGQGTLVTVSA
VL: DVLMTQTPLSLPVSLGDQASISCRSSQSILHSNGNTYLEWYLQKPGQSPKLLIYKVSNRFSGVPDRFSGSGSGTDFTLKISRVEAEDLGVYYCFQGSHVPFTFGSGTKLEIK
notes: Mouse hybridoma antibody, isotype IgG2a-k; also called SB4 mAb
With B1, the binding result in assay [1] and in assay [2] was “binds” in each case.

B2: anti-human SAS1B murine monoclonal antibody SB2 (antibody, IgG2b, V domains shown)
VH: EVQLQQSGPELVKPGSSVKISCKASGYTFTDYNMVWVKQSHGKSLEWIGAVNPNNGGTSYNQKFKGKATLTVDKSSSTAYMELRSLTSEDSAVYYCVPNWDWFAYWGQGTLVTVSA
VL: DVLMTQTPLSLPVSLGDQASISCRSSQSLVHSNGNTYLEWYLQKPGQSPNLLIYKVSNRFSGVPDRFSGSGSGTDFTLKISRVEAEDLGVYYCFQGSHVPFTFGSGTKLEIK
notes: also called SB2 mAb
As for B2, the binding entry in assay [1] and in assay [2] was “binds” in each case.

B3: anti-human SAS1B murine monoclonal antibody SB6 (antibody, IgG2b, V domains shown)
VH: EVQLQQSGPELVKPGSSVKISCKPSGYTFTDYNMVWMKQSHGKSLEWIGAINPNNGGTTYNQKFKGKATLTVDKSSSTAYMELRSLTSEDSAVYYCAPNWDWFAYWGQGTLVTVSA
VL: DVLMTQIPLSLPVSLGDQASISCRSSQSILHSNGNTYLEWYLQKPGQSPKLLIYKVSNRFSGVPDRFSGSGSGTDFTLKISRVEAEDLGVYYCFQGSHVPFTFGSGTKLEIK
Regarding B3, the binding entry in assay [1] and in assay [2] was “binds” each time.

B4: anti-human SAS1B murine monoclonal antibody SB7 (antibody, IgG2b, V domains shown)
VH: EVQLQQSGPELVKPGSSVKISCKPSGYTFTDYNMVWMKQSHGKSLEWIGAINPNNGGTTYNQKFKGKATLTVDKSSSTAYMELRSLTSEDSAVYYCAPNWDWFAYWGQGTLVTVSA
VL: DVLMTQIPLSLPVSLGDQASISCRSSQSILHSNGNTYLEWYLQKPGQSPKLLIYKVSNRFSGVPDRFSGSGSGTDFTLKISRVEAEDLGVYYCFQGSHVPFTFGSGTKLEIK
For B4, the binding result in assay [1] and in assay [2] was “binds” throughout.

B5: anti-human SAS1B murine monoclonal antibody SB5 (antibody, IgG2b, V domains shown)
VH: EVQLQQSGPELVKPGSSVKISCKPSGYTFTDYNMVWMKQSHGKSLEWIGAINPNNGGTTYNQKFKGKATLTVDKSSSTAYMELRSLTSEDSAVYYCAPNWDWFAYWGQGTLVTVSA
VL: DVLMTQIPLSLPVSLGDQASISCRSSQSILHSNGNTYLEWYLQKPGQSPKLLIYKVSNRFSGVPDRFSGSGSGTDFTLKISRVEAEDLGVYYCFQGSHVPFTFGSGTKLEIK
notes: Mouse hybridoma antibody, isotype IgG2b-k; also called SB5 mAb
Consider B5, for which the binding entry in assay [1] is given as “binds”.

B6: anti-human SAS1B murine monoclonal antibody SB3 (antibody, IgG2b, V domains shown)
VH: EVQLQQSGPELVKPGSSVKISCKASGYTFTDYNMVWVKQSHGKSLEWIGAVNPNNGGTSYNQKFKGKATLTVDKSSSTAYMELRSLTSEDSAVYYCVPNWDWFAYWGQGTLVTVSA
VL: DVLMTQTPLSLPVSLGDQASISCRSSQSLVHSNGNTYLEWYLQKPGQSPNLLIYKVSNRFSGVPDRFSGSGSGTDFTLKISRVEAEDLGVYYCFQGSHVPFTFGSGTKLEIK
notes: also called SB3 mAb
On to B6, for which the binding entry in assay [1] and in assay [2] was “binds” throughout.
